For 8 molecules, binding results are on record in US20110311517A1, “Antibodies and methods for treating estrogen receptor-associated diseases” (SHENOGEN PHARMA GROUP, LTD., priority 2009, published 2011).

For assay [1], the target named is T1, biotinylated ERα36 (chemically synthesised target peptide, SEQ ID NO:2) (human).
T1 sequence (peptide, labeled with biotin (site not stated)): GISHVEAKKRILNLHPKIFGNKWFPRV
Put plainly: phage ELISA, biotinylated ERα36 on neutravidin plate. Background: In an ELISA, binding on a coated surface is turned into a signal by an enzyme label.

Assay [2] has the same target. Put plainly: ELISA on biotinylated ERα36 (streptavidin plate).

Results are given in words; binding and its absence hold for the method and conditions named. Some binding calls cover weakened binding; strength is not graded here.

B1: phage-displayed ScFv2 (phage clones 1, 7, 11, 15, 17, 25, 28, 34, 38) (scFv)
scFv: QSALTQPASVSGSPGQSITISCTGTSSDVGGYNYVSWYQQHPGKAPKLMIYDVSKRPSGVSNRFSGSKSGNTASLTISGLQAEDEADYYCSSYTSSSTLVFGGGTKLTVLGSGGSTITSYNVYYTKLSSSGTQVQLLESGAEVKKPGASVKVSCKASGYTFTAYYMHWVRQAPGQGLEWMAMIDPSGSITSYAQKFQGRVTMSRDTSTSTLYMELSSLRSDDTAVYYCARDLKEGFSVPGAFDIWGQGTMVTVSSAS
In the case of B1, in assay [1], the binding result is recorded as “binds”.

B2: human anti-ERα36 ScFv2 (purified, re-natured) (scFv)
scFv: QSALTQPASVSGSPGQSITISCTGTSSDVGGYNYVSWYQQHPGKAPKLMIYDVSKRPSGVSNRFSGSKSGNTASLTISGLQAEDEADYYCSSYTSSSTLVFGGGTKLTVLGSGGSTITSYNVYYTKLSSSGTQVQLLESGAEVKKPGASVKVSCKASGYTFTAYYMHWVRQAPGQGLEWMAMIDPSGSITSYAQKFQGRVTMSRDTSTSTLYMELSSLRSDDTAVYYCARDLKEGFSVPGAFDIWGQGTMVTVSSAS
B2: in assay [2], the binding result is reported as “binds”.

B3: phage-displayed ScFv6 (phage clones 27, 39, 26) (scFv)
scFv: EIVMTQSPGTLSLSPGERATLSCRASQSVDSNFLAWYQQRPGQAPRLLIYGVSSSATGIPDRFSGSGSGTDFTLSIDRLEPEDFAVYYCQQYGSSPTFGGGTKLEIKRSGGSTITSYNVYYTKLSSSGTQVQLQESGGGLVQPGRSLRLSCAASGFTFDDYAMHWVRQAPGKGLEWVSGISWNSGSIGYADSVKGRFTISRDNAKNSLYLQMNSLRAEDTAVYYCARSGDYGAFDIWGQGTMVTVSSAS
In the case of B3, the binding result in assay [1] is reported as “binds”.

B4: human anti-ERα36 ScFv6 (purified, re-natured) (scFv)
scFv: EIVMTQSPGTLSLSPGERATLSCRASQSVDSNFLAWYQQRPGQAPRLLIYGVSSSATGIPDRFSGSGSGTDFTLSIDRLEPEDFAVYYCQQYGSSPTFGGGTKLEIKRSGGSTITSYNVYYTKLSSSGTQVQLQESGGGLVQPGRSLRLSCAASGFTFDDYAMHWVRQAPGKGLEWVSGISWNSGSIGYADSVKGRFTISRDNAKNSLYLQMNSLRAEDTAVYYCARSGDYGAFDIWGQGTMVTVSSAS
B4: the binding entry in assay [2] was “binds”.

B5: phage-displayed ScFv3 (phage clones 4, 8, 14, 22, 23, 37) (scFv)
scFv: QSVLTQPASVSGSPGQSITISCTGTSSDVGGYNYVSWYQQHPGKAPKLMIYDVSKRPSGVSNRFSGSKSGNTASLTISGLQAEDEADYYCSSYTSSSTLVFGGGTKLTVLGSGGSTITSYNVYYTKLSSSGTEVQLVQSGGGVAQPGRSLRLSCAASGITFNSYGMHWVRQAPGKGLEWVAVMPYDGSNEYYADSVKGRFTISRDNSKNTLYLQMNSLRAEDTAVYYCAKGSGMVQLWADAFDVWGQGTMVTVSSAS
B5: the binding result in assay [1] was “binds”.

B6: human anti-ERα36 ScFv3 (purified, re-natured) (scFv)
scFv: QSVLTQPASVSGSPGQSITISCTGTSSDVGGYNYVSWYQQHPGKAPKLMIYDVSKRPSGVSNRFSGSKSGNTASLTISGLQAEDEADYYCSSYTSSSTLVFGGGTKLTVLGSGGSTITSYNVYYTKLSSSGTEVQLVQSGGGVAQPGRSLRLSCAASGITFNSYGMHWVRQAPGKGLEWVAVMPYDGSNEYYADSVKGRFTISRDNSKNTLYLQMNSLRAEDTAVYYCAKGSGMVQLWADAFDVWGQGTMVTVSSAS
Turning to B6, the binding entry in assay [2] was “binds”.

B7: phage-displayed ScFv7 (phage clone 12) (scFv)
scFv: QSVLTQPPSVSAAPGQKVTISCSGSSSNIGNNYVSWYQQLPGTAPKLLIYDNNKRPSGIPDRFSGSKSGTSATLGITGLQTGDEADYYCGTWDSSLSAGVFGGGTKLTVLGSGGSTITSYNVYYTKLSSSGTEVQLVQSGGGLVQPGRSLRLSCAASGFTFDDYAMHWVRQAPGKGLEWVSGISWNSGSIGYADSVKGRFTISRDNAKNSLYLQMNSLRAEDTALYYCAKEGDSSGWSPDYWGQGTLVTVSSAS
With B7, the binding entry in assay [1] is “binds”.

B8: human anti-ERα36 ScFv7 (purified, re-natured) (scFv)
scFv: QSVLTQPPSVSAAPGQKVTISCSGSSSNIGNNYVSWYQQLPGTAPKLLIYDNNKRPSGIPDRFSGSKSGTSATLGITGLQTGDEADYYCGTWDSSLSAGVFGGGTKLTVLGSGGSTITSYNVYYTKLSSSGTEVQLVQSGGGLVQPGRSLRLSCAASGFTFDDYAMHWVRQAPGKGLEWVSGISWNSGSIGYADSVKGRFTISRDNAKNSLYLQMNSLRAEDTALYYCAKEGDSSGWSPDYWGQGTLVTVSSAS
On to B8, for which the binding result in assay [2] is reported as “binds”.
